Reference: patent EP1666075A1

Biological target: Cathepsin G (Homo sapiens (Human))
Assay: ELISA: plate-coated Cathepsin G, ACT samples added, detected with rabbit anti human ACT antibody and goat anti rabbit IgG-HRP, OPD, A490

B1: alpha-1-antichymotrypsin (protein, UniProt P01011 24-423, looked up)
chain: HPNSPLDEENLTQENQDRGTHVDLGLASANVDFAFSLYKQLVLKAPDKNVIFSPLSISTALAFLSLGAHNTTLTEILKGLKFNLTETSEAEIHQSFQHLLRTLNQSSDELQLSMGNAMFVKEQLSLLDRFTEDAKRLYGSEAFATDFQDSAAAKKLINDYVKNGTRGKITDLIKDLDSQTMMVLVNYIFFKAKWEMPFDPQDTHQSRFYLSKKKWVMVPMMSLHHLTIPYFRDEELSCTVVELKYTGNASALFILPDQDKMEEVEAMLLPETLKRWRDSLEFREIGELYLPKFSISRDYNLNDILLQLGIEEAFTSKADLSGITGARNLAVSQVVHKAVLDVFEEGTEASAATAVKITLLSALVETRTIVRFNRPFLMIIVPTDTQNIFFMSKVTNPKQA
B1 was tested, and the binding was “binds”.

Results are given in words; binding and its absence hold for the method and conditions named. A result given as binding can be weak or reduced; the word gives no strength.
